Among all 320,000 compounds or so, about 2,100 (0.66%) were called active. Inconclusive results, whose numbers are uncertain, are shown with a selection of clear calls. The call rests on the fitted dose curve; in most records, active means well fitted inhibition curve with a large enough effect in the signal ratio, with a control signal flat (not every such curve was filed as active); inconclusive means small, poorly fitted or top-dose-only effect, or effect the other way, or a change in a side signal; inactive means flat fitted curve, though single readings scatter; the % refers to the signal ratio. Where the call is inconclusive, the potency comes from a doubtful curve fit.
Assay: qHTS Assay for Lipid Storage Modulators in Drosophila S3 Cells
Details: BODIPY lipid droplet fluorescence, 18-24 h, cells fed with added oleic acid; lipid storage change, negative = inhibition: at 46.1 µM (top of the series) unless noted
Procedure, shortened: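 Drosophila S3 cells loaded with oleic acid (400 uM, as added) and compounds at several concentrations; lipid droplets imaged by 488-nm laser-scanning cytometry, 500–530 nm intensity and object ratio to cell channel. Percent activity normalized to 20 uM Triacsin C.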
On the % scale 0 is the no-effect control and ±100 the full control effect; potency means the concentration at half of the fitted maximal effect.

SMILES | lipid storage change, negative = inhibition | Potency
CN(CC(=O)Nc1ccc(F)cc1)C(=O)CN1C(=O)NC2(CCCC2)C1=O | inconclusive: -7.94% [at 0.0737 µM] | –
COc1ccc(NC(=O)CN2CCC(C(N)=O)(N3CCCCC3)CC2)c(OC)c1 | inconclusive: 5.66% | –
COc1ccc(C(=O)NCc2cccc(Cl)c2)cc1S(=O)(=O)N1CCOCC1 | – | inconclusive: 0.0366 µM [activator, full curve]
C[n+]1cccc2c(Br)ccc([O-])c21 | inconclusive: 0.909% | –
Cc1ccc2c3c(cccc13)-c1ccccc1C2=O | inconclusive: 20.4% | –
COc1ccc(CN(C)C(=O)Cc2ccc(OC)c(S(=O)(=O)N3CCOCC3)c2)cc1OC | – | inconclusive: 0.184 µM [falling, full curve]
O=C(CSc1cccc[n+]1[O-])Nc1cc2c(cc1Cl)C(=O)c1ccccc1C2=O | inconclusive: 22.7% | –
O=C(O)c1ccc(-n2nnnc2SCc2ccccc2Br)cc1 | inconclusive: 32.2% | –
O=C(NCC1CCCO1)C(=O)NCC1CCCN1S(=O)(=O)c1ccccc1 (centres undefined) | inconclusive: 5.59% | –
Cc1cc(C)c2cc(CN(CCO)C(=O)NC3CCCCC3)c(=O)[nH]c2c1 | inconclusive: 1.83% | –
CC(C)N(Cc1ccccc1)S(=O)(=O)c1cccs1 | inactive | –
O=C(CN1CC(=O)Oc2ccccc21)OCC(=O)c1cccc(Br)c1 | – | inconclusive: 20.6 µM [activator, partial curve, poor fit]
O=[N+]([O-])c1ccccc1S(=O)(=O)Nc1ccc(-c2ccc(N3CCCC3)nn2)cc1 | – | inconclusive: 13 µM [activator, partial curve, poor fit]
C=C(C)C1CC=C(C)/C(=N\NC(=O)CNc2ccccc2OC)C1 (centres undefined) | inconclusive: 24.9% | –
CCCN(C(=O)COc1ccc(C(C)=O)cc1OC)C1CCS(=O)(=O)C1 (centres undefined) | inconclusive: 10% | –
CCCCc1ccc(NC(=S)NCCN2CCOCC2)cc1 | inconclusive: 0.769% [cytotoxic] | –
COCCN1C(=O)N[C@@H](c2cccc(F)c2)C(C(=O)OC)=C1C | inconclusive: -1.84% | –
CCN(CC(=O)NCc1cccs1)C(=O)c1cc(S(=O)(=O)N2CCCCC2)ccc1Cl | inconclusive: 15.7% | –
CCC(C)N1CCN(S(=O)(=O)c2ccc(NC(C)=O)cc2)CC1 (centres undefined) | inconclusive: 14% | –
O=c1[nH]c(SCc2ccc([N+](=O)[O-])cc2)nc2[nH]ncc12 | inconclusive: 26.2% [at 9.22 µM] | –

Filtered by structure: the compounds so far with fluorine.
SMILES | lipid storage change, negative = inhibition | Potency
CN(CC(=O)Nc1ccc(F)cc1)C(=O)CN1C(=O)NC2(CCCC2)C1=O | inconclusive: -7.94% [at 0.0737 µM] | –
COCCN1C(=O)N[C@@H](c2cccc(F)c2)C(C(=O)OC)=C1C | inconclusive: -1.84% | –

Additional structures follow:

SMILES | lipid storage change, negative = inhibition | Potency
COc1cccc2sc3ccc(NCCC4CCCN4C)cc3c(=O)c12 (centres undefined) | inconclusive: -23.8% | –
O=C(O)C1Nc2c(O)cc(Cl)c([N+](=O)[O-])c2C2C=CCC12 (centres undefined) | – | inconclusive: 0.0046 µM [falling, full curve, poor fit]
CCCN(CCC)S(=O)(=O)c1ccc(C(=O)Nc2ccc(S(=O)(=O)Nc3nnc(CC)s3)cc2)cc1 | – | inconclusive: 1.03 µM [falling, full curve]
c1ccc2c(Nc3nncs3)c3ccccc3nc2c1 | inconclusive: 21% | –
CC(C)c1ccc(NC(=S)N2CCN(C)CC2)cc1 | inconclusive: 14.5% | –
Nc1nnc(SCC(=O)NC2CCCCCC2)s1 | inconclusive | –
O=C(CNC(=O)c1ccco1)NC1CCCCCC1 | inconclusive | –
COc1cccc(CNC(=O)COC(=O)CCCNC(=O)c2ccc(Cl)cc2)c1 | inconclusive: 7.16% | –
COc1ccccc1N1CCN(C(=O)c2cc(-c3ccc(C)cc3)on2)CC1 | inconclusive: 159% | –
CC1(C)CC(=O)C=C(NCCc2c[nH]c3ccccc23)C1 | inconclusive: 6.36% | –
CCOCCCNC(=O)c1cc2c(=O)n3cccc(C)c3nc2s1 | inactive | –
COc1ccc(C(=O)N[C@H](C(=O)NCc2ccc(C)cc2)C(C)C)cc1 | inconclusive: 17.7% | –
O=C(Nc1cccc(S(=O)(=O)Nc2ccc(Cl)cc2)c1)c1cc2c(s1)CCCC2 | – | inconclusive: 29.1 µM [falling, single point]
CCOC(=O)[C@H]1[C@H]2COc3ccc(Cl)cc3[C@@H]2N2C(=O)CN(CC3CCCO3)C(=O)[C@@]12C (some centres undefined) | – | inconclusive: 0.517 µM [activator, partial curve]
CCNC(=O)Cc1c(OC)ccc2cc(Br)ccc12 | inconclusive: -7.91% [at 9.22 µM] | –
COc1ccc(S(N)(=O)=O)cc1C(=O)N1CCCC1 | – | inconclusive: 29.1 µM [falling, single point]
O=S(=O)(c1ccc(N2CCCCCC2)nc1)N1CCCC1 | inconclusive: 50.7% | –
O=C(NCCc1ccccc1)C1CCC(Cn2c(=O)c3ccccc3n(Cc3cccnc3)c2=O)CC1 (centres undefined) | inconclusive: -9.18% | –
Cc1cc(C)nc(N/N=C/c2ccc([N+](=O)[O-])o2)n1 | – | inconclusive: 23.1 µM [falling, single point]
